Measurements reported in publication PMC9270653.
These are yes or no findings as the source states them, for the method shown. Binding seen in cells or lysates may run through a third protein. These calls come from enrichment with a bait or labelling near it, and not all partners need be listed.

Protein sequences, listed by entry. Tags and fused reporters are not part of them.
UniProt A2BH40: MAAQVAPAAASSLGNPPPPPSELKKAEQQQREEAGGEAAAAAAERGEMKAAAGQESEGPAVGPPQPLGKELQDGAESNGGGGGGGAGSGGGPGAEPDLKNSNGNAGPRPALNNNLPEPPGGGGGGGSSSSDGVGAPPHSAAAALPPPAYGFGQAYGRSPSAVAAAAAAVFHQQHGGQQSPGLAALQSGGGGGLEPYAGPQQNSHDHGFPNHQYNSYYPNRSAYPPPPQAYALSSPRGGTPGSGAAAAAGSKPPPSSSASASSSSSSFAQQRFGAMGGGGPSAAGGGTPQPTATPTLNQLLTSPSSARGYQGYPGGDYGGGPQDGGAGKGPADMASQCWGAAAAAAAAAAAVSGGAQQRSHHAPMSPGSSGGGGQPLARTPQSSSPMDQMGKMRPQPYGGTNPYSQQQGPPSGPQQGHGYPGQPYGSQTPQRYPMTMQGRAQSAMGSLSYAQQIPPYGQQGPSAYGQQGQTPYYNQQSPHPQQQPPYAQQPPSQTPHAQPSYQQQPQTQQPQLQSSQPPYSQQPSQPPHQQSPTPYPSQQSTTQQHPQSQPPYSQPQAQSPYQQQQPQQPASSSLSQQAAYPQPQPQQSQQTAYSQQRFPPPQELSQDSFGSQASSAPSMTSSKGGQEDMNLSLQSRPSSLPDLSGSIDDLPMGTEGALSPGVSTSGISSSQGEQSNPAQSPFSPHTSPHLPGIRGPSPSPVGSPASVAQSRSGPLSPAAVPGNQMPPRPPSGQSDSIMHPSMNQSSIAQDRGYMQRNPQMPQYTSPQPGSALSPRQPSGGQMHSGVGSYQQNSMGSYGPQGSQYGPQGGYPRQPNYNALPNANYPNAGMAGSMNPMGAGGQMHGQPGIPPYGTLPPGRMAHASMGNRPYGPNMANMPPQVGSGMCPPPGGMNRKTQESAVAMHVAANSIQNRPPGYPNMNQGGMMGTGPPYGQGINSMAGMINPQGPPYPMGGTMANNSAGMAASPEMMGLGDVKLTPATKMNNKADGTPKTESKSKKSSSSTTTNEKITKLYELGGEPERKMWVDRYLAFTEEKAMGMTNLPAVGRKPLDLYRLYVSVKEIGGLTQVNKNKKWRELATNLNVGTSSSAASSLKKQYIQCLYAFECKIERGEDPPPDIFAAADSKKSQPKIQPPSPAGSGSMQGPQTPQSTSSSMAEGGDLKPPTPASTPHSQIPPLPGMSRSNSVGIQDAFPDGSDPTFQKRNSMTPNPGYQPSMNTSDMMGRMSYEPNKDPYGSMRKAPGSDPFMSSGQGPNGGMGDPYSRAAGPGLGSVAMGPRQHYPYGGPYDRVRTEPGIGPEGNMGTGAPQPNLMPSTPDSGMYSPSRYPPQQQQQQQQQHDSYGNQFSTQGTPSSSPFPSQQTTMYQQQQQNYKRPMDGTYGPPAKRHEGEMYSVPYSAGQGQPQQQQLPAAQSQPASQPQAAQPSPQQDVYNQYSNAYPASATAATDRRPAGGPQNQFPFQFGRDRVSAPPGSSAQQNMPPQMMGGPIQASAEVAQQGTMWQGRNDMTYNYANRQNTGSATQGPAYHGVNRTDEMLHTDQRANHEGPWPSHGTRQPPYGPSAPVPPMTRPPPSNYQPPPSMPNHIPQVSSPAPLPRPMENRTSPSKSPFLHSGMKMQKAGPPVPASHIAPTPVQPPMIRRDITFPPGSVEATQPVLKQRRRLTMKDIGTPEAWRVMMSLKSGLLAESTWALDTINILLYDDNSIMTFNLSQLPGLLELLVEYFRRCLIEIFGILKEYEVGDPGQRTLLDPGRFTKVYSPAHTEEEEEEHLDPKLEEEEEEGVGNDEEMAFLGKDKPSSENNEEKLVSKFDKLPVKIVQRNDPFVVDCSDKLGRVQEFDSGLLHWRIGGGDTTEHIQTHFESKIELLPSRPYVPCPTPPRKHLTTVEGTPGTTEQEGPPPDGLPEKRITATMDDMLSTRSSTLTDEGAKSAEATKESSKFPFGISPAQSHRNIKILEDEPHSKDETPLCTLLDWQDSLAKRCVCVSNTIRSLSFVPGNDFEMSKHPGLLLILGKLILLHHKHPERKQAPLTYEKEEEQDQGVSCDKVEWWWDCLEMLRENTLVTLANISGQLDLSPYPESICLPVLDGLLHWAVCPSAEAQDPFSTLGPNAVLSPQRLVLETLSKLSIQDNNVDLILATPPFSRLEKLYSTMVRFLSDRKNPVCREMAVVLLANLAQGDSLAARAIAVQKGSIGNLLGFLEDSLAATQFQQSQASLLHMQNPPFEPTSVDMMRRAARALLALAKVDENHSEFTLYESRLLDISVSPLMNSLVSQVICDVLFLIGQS
UniProt Q8K019: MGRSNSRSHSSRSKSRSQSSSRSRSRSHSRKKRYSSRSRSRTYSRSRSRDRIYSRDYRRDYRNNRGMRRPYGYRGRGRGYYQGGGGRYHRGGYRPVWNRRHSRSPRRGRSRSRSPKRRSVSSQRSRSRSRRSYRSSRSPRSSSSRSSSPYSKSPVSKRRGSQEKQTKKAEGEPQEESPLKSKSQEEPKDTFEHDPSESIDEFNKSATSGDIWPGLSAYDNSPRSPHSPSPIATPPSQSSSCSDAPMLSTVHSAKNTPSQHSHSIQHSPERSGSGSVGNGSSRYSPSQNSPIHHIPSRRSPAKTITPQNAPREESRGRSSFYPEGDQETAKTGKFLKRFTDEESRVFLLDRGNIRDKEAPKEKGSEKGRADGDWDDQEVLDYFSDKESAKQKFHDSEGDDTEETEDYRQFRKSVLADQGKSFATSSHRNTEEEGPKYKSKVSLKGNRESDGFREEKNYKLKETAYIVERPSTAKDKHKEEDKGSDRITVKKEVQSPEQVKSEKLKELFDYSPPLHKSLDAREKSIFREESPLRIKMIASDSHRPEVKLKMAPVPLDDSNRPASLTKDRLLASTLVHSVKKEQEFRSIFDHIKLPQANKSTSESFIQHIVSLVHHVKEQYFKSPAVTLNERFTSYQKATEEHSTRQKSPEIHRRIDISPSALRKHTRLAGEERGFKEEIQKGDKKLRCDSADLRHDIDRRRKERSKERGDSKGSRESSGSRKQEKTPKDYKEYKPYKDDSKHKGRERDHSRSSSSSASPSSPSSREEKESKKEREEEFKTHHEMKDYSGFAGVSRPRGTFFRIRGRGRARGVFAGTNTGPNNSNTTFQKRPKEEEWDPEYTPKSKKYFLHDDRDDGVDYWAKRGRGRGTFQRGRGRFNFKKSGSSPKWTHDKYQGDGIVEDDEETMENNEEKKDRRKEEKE

Target: Arid1a (mouse (endogenous in mESCs)) (UniProt A2BH40)
Test: affinity purification with mass spectrometry; endogenous Arid1a immunoprecipitated from mESC nuclear lysate (lysis at 450 mM NaCl; IP at 150 mM or 450 mM NaCl, 1-2 h, 4°C) with antibody PSG3 on Protein G-Dynabeads; LC-MS of the digest

Bclaf1 (from UniProt Q8K019 1-919)
binding: binds
